The results in this text go back to article PMC7502707, “Characterization and validation of a preventative therapy for hypertrophic cardiomyopathy in a murine model of the disease” (Proceedings of the National Academy of Sciences of the …, 2020).

For this data set, the system named is cTnI-G203S mice. In words: Echocardiography of treated cTnI-G203S mice. In kind it is in vivo, mouse. The note with it: 10 μM i.p. 3×/wk/5 wk, mean. As for the experimental part: Male mice expressing the human cTnI gene encoding the human disease-causing mutation cTnI-G203S were used for all studies. The mice develop hallmark features of HCM by 21 wk ([7], [13]). Male mice expressing the normal human cTnI gene were used as controls (wt). Ten-week-old mice were used for in vitro studies. For in vivo studies, 20- or 30-wk-old cTnI-G203S mice were treated with 10 μM AID-TAT or AID[S]-TAT via intraperitoneal injection, 3×/wk/5 wk. In vivo dose of AID-TAT or AID[S]-TAT (10 μM) was calculated based on blood volume, equating to ∼2 mg/kg total BW. Male animal models were used to eliminate potential differences in responses due to sex. Experiments were performed in a total of 21 wt (AID[S]-TAT), 6 wt (AID-TAT), 15 cTnI-G203S (AID[S]-TAT), and 26 cTnI-G203S (AID-TAT) mice. All animals were randomly assigned to treatment groups. All animal studies were approved by the Animal Ethics Committee of The University of Western Australia in accordance with the 2013 Australian Code for the Care and Use of Animals for Scientific Purposes ([58]).
Echocardiographic measurement of left ventricular function were performed on mice under light methoxyflurane anesthesia using an i13L probe on a Vivid 7 Dimension ultrasound system (GE Healthcare), as previously described ([13], [29], [30]). Each n represents the average of quantitative measurements from wt or cTnI-G203S mice for each treatment group. Detailed methods are provided in SI Appendix.
Echocardiographic measurement of left ventricular function were performed on mice under light methoxyflurane anesthesia using an i13L probe on a Vivid 7 Dimension ultrasound system (GE Healthcare, Little Chalfont, United Kingdom) as previously described (4, 7). Echocardiographic measurements were taken on M-mode in triplicate from separate mice at a sweep speed of 200 mm/s. Each n represents the average of quantitative measurements from wt or cTnI-G203S mice for each treatment group. […] FS was calculated by the formula [(LVEDD-LVESD)/EDD] x 100. […]

Setting [1] is: Pre-HCM treatment (from 20 wk), 25-wk-old cTnI-G203S mice, n = 7 AID(S)-TAT, n = 6 AID-TAT.

“QKILGEWDLAQYTDQELE [AID(S)-TAT, reference compound]” came in with an HR under setting [1] of 450 bpm. As to QQLEEDLKGYLDWITQAE [AID-TAT], the HR (Post-HCM treatment (from 30 wk), 35-wk-old cTnI-G203S mice, n = 5) was found to be 450 bpm and the HR under setting [1] worked out at 452 bpm.
